Test results as given in US6329497A, “Sandramycin analogs” (The Scripps Research Institute, priority 1999, dated 2001).
At least one structure is not confirmed: it was looked up by name or label, or the drawing left a doubt.

Test system: calf thymus DNA and 5'-d(GCATGC)2
Test: DNA binding affinity trends over calf thymus DNA and 5'-d(GCATGC)2 (fluorescence quenching)
Conditions: O-methylation or removal of chromophore phenol
Procedure: Apparent absolute DNA binding constants for 1-22 and related agents including luzopeptin A were obtained by measurement of the fluorescence quenching upon titration addition of calf thymus DNA or the deoxyoligonucleotides 5'-d(GCXXGC)2 where XX=AT, TA, GC, and CG. For each agent, the characteristic fluorescence excitation and emission spectra were recorded in 10 mM Tris-HCl, 75 mM NaCl (pH 7.4) buffer, FIG. 6. For the DNA binding assays which quantitate the fluorescence quenching, excitation outside the absorbance range of DNA was employed and the most intense fluorescence emission at a longer wavelength monitored. For assay of the DNA-induced fluorescence quenching of the agents, a 2 mL buffer solution of Tris-HCl (pH 7.4) and 75 mM NaCl was employed. […]
Despite these precautions, the fluorescence for a number of the analog solutions decreased for several of analogs (11, 14, 17, 21 and 22) and the quality of the binding constants for these should be viewed with caution. […] The titration fluorescence quenching was analyzed by Scatchard analysis (Scatchard, G. Ann. N. Y. Acad. Sci. 1949, 51, 660) with the following equation: rb /c=Kb n-Kb rb where rb is the number of agent molecules bound per DNA base-pair, c is the free drug concentration, Kb is the apparent association constant, and n is the number of agent binding sites per base-pair. […]

| SMILES | reduction of the binding affinity versus 1 |
| --- | --- |
| COc1cc2ccccc2nc1C(=O)N[C@@H]1COC(=O)[C@H](C(C)C)N(C)C(=O)CN(C)C(=O)CNC(=O)[C@@H]2CCCCN2C(=O)[C@H](NC(=O)c2nc3ccccc3cc2OC)COC(=O)[C@H](C(C)C)N(C)C(=O)CN(C)C(=O)CNC(=O)[C@@H]2CCCCN2C1=O [compound 3, (N-(3-Methoxy-quinolinyl-2-carbonyl)-D-ser-Pip-Gly-Sar-NMe-Val)2 (Serine Hydroxyl) Dilactone] | 1.5-0.8 |
| CC(C)[C@H]1C(=O)OC[C@@H](NC(=O)c2ccc3ccccc3n2)C(=O)N2CCCC[C@H]2C(=O)NCC(=O)N(C)CC(=O)N(C)[C@@H](C(C)C)C(=O)OC[C@@H](NC(=O)c2ccc3ccccc3n2)C(=O)N2CCCC[C@H]2C(=O)NCC(=O)N(C)CC(=O)N1C [compound 4, (N-(Quinol-inyl-2-carbonyl)-D-Ser-Pip-Gly-Sar-NMe-Val)2 (Serine Hydroxyl) Dilactone] | 1.5-0.8 |
